Source: PubChem BioAssay AID330 (DTP/NCI, 2004)
The list does not hold the whole screen: it is rich in T/C values a quarter to a half above the control, in often repeated tests (any T/C) and in doses without a T/C. Further doses and runs are listed elsewhere. T/C: endpoint of the treated group in % of that of the vehicle group. Some doses have a count of surviving animals in place of a T/C: the source holds a T/C of zero for them, seemingly a mark for toxic or unscored doses. Some survivor counts are full or nearly so, which does not show that the dose was tolerated: survival well below the control is almost never listed, so the zero probably covers shortened survival too. Counts of survivors are from the toxicity check (mostly the fifth day) where no day follows; animals may have died later. Schedule codes are those of the source, read here as Q, the interval in days (D) or hours (H), X, the number of doses. Some doses were run more than once; the results are listed from low to high. Where survival is the endpoint, the PubChem record calls one and a half times the control and up active, and a quarter to a half above the control has no call in these data; cut-offs in other NCI protocols can differ. Some T/C values carry the count of animals alive at the toxicity check (mostly the fifth day); without a count, all were alive then.

Tested on: P388 leukemia ip, CD2F1 mice, survival T/C
Experiment: NCI In Vivo Anticancer Drug Screen. Data for tumor model P388 Leukemia (intraperitoneal) in CD2F1 (CDF1) mice
Settings: T/C endpoint: median survival time, higher T/C = longer survival
[1] = dose: 8.0 mg/kg/injection, schedule: Q01DX009 (ip), vehicle: saline with Tween-80
[2] = dose: 100.0 mg/kg/injection, schedule: Q04DX003 (ip), vehicle: saline with Tween-80
[3] = dose: 200.0 mg/kg/injection, schedule: Q04DX003 (ip), vehicle: saline with Tween-80
[4] = dose: 400.0 mg/kg/injection, schedule: Q04DX003 (ip), vehicle: saline with Tween-80
[5] = dose: 400.0 mg/kg/injection, schedule: Q04DX002 (ip), vehicle: saline with Tween-80
[6] = dose: 60.0 mg/kg/injection, schedule: Q01DX005 (ip), vehicle: Klucel (hydroxypropylcellulose) (HPC)
[7] = dose: 120.0 mg/kg/injection, schedule: Q01DX005 (ip), vehicle: Klucel (hydroxypropylcellulose) (HPC)
[8] = dose: 240.0 mg/kg/injection, schedule: Q01DX005 (ip), vehicle: Klucel (hydroxypropylcellulose) (HPC)
[9] = dose: 120.0 mg/kg/injection, schedule: Q01DX005 (ip), vehicle: saline with Tween-80
[10] = dose: 240.0 mg/kg/injection, schedule: Q01DX005 (ip), vehicle: saline with Tween-80
[11] = dose: 200.0 mg/kg/injection, schedule: Q01DX001 (ip), vehicle: saline with Tween-80
[12] = dose: 200.0 mg/kg/injection, schedule: Q01DX005 (ip), vehicle: saline with Tween-80
[13] = dose: 50.0 mg/kg/injection, schedule: Q01DX009 (ip), vehicle: Klucel (hydroxypropylcellulose) (HPC)

Q: With `O=C1OCc2c1cc1n(c2=O)Cc2cc3ccccc3nc2-1` as the compound, how does the T/C (dose: 4.0 mg/kg/injection, schedule: Q01DX009 (ip), vehicle: saline with Tween-80) read?
A: 94 [5 of 6 alive], 98 [5 of 6 alive], 107, 112 % of control

Q: What about the T/C [1] of the same compound?
A: 92, 117, 127 % of control

Q: And the survivor count [1]?
A: 6 of 6

Q: What about the survivor count (dose: 16.0 mg/kg/injection, schedule: Q01DX009 (ip), vehicle: saline with Tween-80) of the same compound?
A: 6 of 6

Q: What about the survivor count (dose: 32.0 mg/kg/injection, schedule: Q01DX009 (ip), vehicle: saline with Tween-80) of the same compound?
A: 5 of 6

Q: And the survivor count (dose: 64.0 mg/kg/injection, schedule: Q01DX009 (ip), vehicle: saline with Tween-80)?
A: 6 of 6

Q: Which survivor count (dose: 360.0 mg/kg/injection, schedule: Q04DX002 (ip), vehicle: distilled water + Tween-80) does the source give for `C=C(Cn1cc(F)c(=O)n(CC(=C)C(=O)OCC)c1=O)C(=O)OCC` here?
A: 5 of 5

Q: Which results are given for `COC(=O)C(Cc1ccc(N(CCCl)CCCl)cc1)N=NNc1nc[nH]c1C(N)=O` (stereo not given)?
A: survivor count [2]: 6 of 6; survivor count [3]: 5 of 6; survivor count [4]: 0 of 6

Q: Which survivor count [5] does the source give for `O=c1cc(-c2ccccc2)c2ccc(O)c(CN(CCO)CCO)c2o1` here?
A: 6 of 6

Q: How did the survivor count (dose: 200.0 mg/kg/injection, schedule: Q01DX009 (ip), vehicle: saline sonified) turn out when `NNC(=O)CCC(N)C(=O)O` (stereo not given) was run?
A: 5 of 6

Q: Which results are given for `C1CO[Te]2(O1)OCCO2`?
A: survivor count [2]: 6 of 6; survivor count [3]: 6 of 6; survivor count [4]: 1 of 6

Q: What does the source list for `N=C(N)c1ccc(Nc2ccc(-c3cc4ccc(C(=N)N)cc4[nH]3)cc2)cc1`?
A: T/C (dose: 3.75 mg/kg/injection, schedule: Q01DX005 (ip), vehicle: Klucel (hydroxypropylcellulose) (HPC)): 126 % of control; survivor count (dose: 30.0 mg/kg/injection, schedule: Q01DX005 (ip), vehicle: Klucel (hydroxypropylcellulose) (HPC)): 6 of 6; survivor count [6]: 3 of 6; survivor count [7]: 0 of 6; survivor count [8]: 0 of 6

Q: With `Cc1ccc(Cl)cc1NC(=O)OCCN(C)C(=O)Nc1cc(Cl)ccc1C` as the compound, how does the survivor count [6] read?
A: 6 of 6

Q: What about the survivor count [7] of the same compound?
A: 6 of 6

Q: And the survivor count [8]?
A: 6 of 6

Q: For `O=NNc1ccc(Br)cn1`, which T/C (dose: 3.0 mg/kg/injection, schedule: Q01DX008 (ip), vehicle: water) is on record?
A: 125 % of control

Q: And the T/C (dose: 3.12 mg/kg/injection, schedule: Q01DX009 (ip), vehicle: water)?
A: 128 % of control

Q: What about the T/C (dose: 6.25 mg/kg/injection, schedule: Q01DX009 (ip), vehicle: water) of the same compound?
A: 145 % of control

Q: And the survivor count (dose: 25.0 mg/kg/injection, schedule: Q01DX009 (ip), vehicle: water)?
A: 6 of 6

Q: Which survivor count [9] does the source give for `NC(=O)C1C(=O)NC(=O)C1=O` (stereo not given) here?
A: 1 of 6

Q: And the survivor count [10]?
A: 0 of 6

Q: How did the survivor count [5] turn out when `CC1C(C)(C)P(C)(=O)C1(C)C` (stereo not given) was run?
A: 0 of 6

Q: For `CCN(CC)C1=NS(=O)(=O)c2ccccc2C(c2ccccc2)=C1C`, which survivor count (dose: 200.0 mg/kg/injection, schedule: Q04DX003 (ip), vehicle: Klucel (hydroxypropylcellulose) (HPC)) is on record?
A: 6 of 6

Q: What does the source list for `CNc1c2ccccc2nc2ccccc12`?
A: survivor count (dose: 50.0 mg/kg/injection, schedule: Q04DX002 (ip), vehicle: distilled water + Tween-80): 5 of 6; survivor count (dose: 100.0 mg/kg/injection, schedule: Q04DX002 (ip), vehicle: distilled water + Tween-80): 0 of 6; survivor count (dose: 200.0 mg/kg/injection, schedule: Q04DX002 (ip), vehicle: distilled water + Tween-80): 0 of 6; survivor count (dose: 400.0 mg/kg/injection, schedule: Q04DX002 (ip), vehicle: distilled water + Tween-80): 0 of 6

Q: Which survivor count (dose: 80.0 mg/kg/injection, schedule: Q01DX005 (ip), vehicle: Klucel (hydroxypropylcellulose) (HPC)) does the source give for `C=C1C(=O)C23OC2C1CCC(=O)C1(C)CC[C@H](OC(C)=O)C(C)(C)[C@H]1CC3O` (stereo not given in full) here?
A: 0 of 6

Q: What about the survivor count (dose: 160.0 mg/kg/injection, schedule: Q01DX005 (ip), vehicle: Klucel (hydroxypropylcellulose) (HPC)) of the same compound?
A: 0 of 6

Q: With `O=c1c2ccccc2nc(CCN(CCCl)CCCl)n1-c1ccc(Cl)cc1` as the compound, how does the T/C (dose: 100.0 mg/kg/injection, schedule: Q01DX001 (ip), vehicle: saline) read?
A: 135 and 138 % of control

Q: What about the T/C (dose: 200.0 mg/kg/injection, schedule: Q01DX001 (ip), vehicle: saline) of the same compound?
A: 147 % of control

Q: What about the survivor count (dose: 400.0 mg/kg/injection, schedule: Q01DX001 (ip), vehicle: saline) of the same compound?
A: 1 of 6

Q: How did the survivor count [11] turn out when `CCCCCCCCCCCCCCCCCC[N+]1(CC)CCSCC1` was run?
A: 5 of 6

Q: With `Cc1cn2ccccc2c[n+]1=O` as the compound, how does the survivor count (dose: 20.0 mg/kg/injection, schedule: Q01DX009 (ip), vehicle: saline sonified) read?
A: 5 of 6

Q: What does the source list for `CN(CCC(=O)/C(=C\c1ccccc1)c1ccc(Cl)cc1)Cc1ccccc1`?
A: survivor count (dose: 12.5 mg/kg/injection, schedule: Q01DX005 (ip), vehicle: saline with Tween-80): 3 of 5; survivor count (dose: 50.0 mg/kg/injection, schedule: Q01DX005 (ip), vehicle: saline with Tween-80): 0 of 5; survivor count (dose: 100.0 mg/kg/injection, schedule: Q01DX005 (ip), vehicle: saline with Tween-80): 0 of 5; survivor count [12]: 0 of 5

Q: Which survivor count [11] does the source give for `COC(=O)/C(C)=C/C1N=C1c1ccccc1` (stereo not given) here?
A: 2 of 6

Q: Which results are given for `Cc1cc(C)c(CCl)c(C)c1CCl`?
A: T/C (dose: 6.25 mg/kg/injection, schedule: Q01DX009 (ip), vehicle: Klucel (hydroxypropylcellulose) (HPC)): 132 % of control; T/C (dose: 12.5 mg/kg/injection, schedule: Q01DX009 (ip), vehicle: Klucel (hydroxypropylcellulose) (HPC)): 133 and 139 % of control; T/C (dose: 25.0 mg/kg/injection, schedule: Q01DX009 (ip), vehicle: Klucel (hydroxypropylcellulose) (HPC)): 138 % of control; T/C [13]: 125 % of control; survivor count [13]: 2 of 3 and 5 of 6; survivor count (dose: 100.0 mg/kg/injection, schedule: Q01DX009 (ip), vehicle: Klucel (hydroxypropylcellulose) (HPC)): 0 of 3; survivor count (dose: 200.0 mg/kg/injection, schedule: Q01DX009 (ip), vehicle: Klucel (hydroxypropylcellulose) (HPC)): 0 of 3 and 6 of 6

Q: With `N#CC(c1ccccc1)c1ccc2ccccc2n1` (stereo not given) as the compound, how does the survivor count [10] read?
A: 6 of 6

Q: Which survivor count (dose: 200.0 mg/kg/injection, schedule: Q01DX005 (ip), vehicle: saline) does the source give for `CCN(CC)CCC(O)c1ccc(Cl)c2ccccc12` (stereo not given) here?
A: 0 of 5

Q: For `COC(=O)CC1OCC=C2CN3CCC45C6=CC(=O)C(=O)C([N+](=O)[O-])=C6NC4C1C2CC35` (stereo not given), which survivor count (dose: 30.0 mg/kg/injection, schedule: Q01DX005 (ip), vehicle: suspension in saline) is on record?
A: 0 of 6

Q: And the survivor count (dose: 60.0 mg/kg/injection, schedule: Q01DX005 (ip), vehicle: saline)?
A: 0 of 6

Q: What about the survivor count (dose: 120.0 mg/kg/injection, schedule: Q01DX005 (ip), vehicle: saline) of the same compound?
A: 0 of 6

Q: And the survivor count (dose: 240.0 mg/kg/injection, schedule: Q01DX005 (ip), vehicle: saline)?
A: 0 of 6

Q: How did the T/C (dose: 90.0 mg/kg/injection, schedule: Q04DX002 (ip), vehicle: saline with Tween-80) turn out when `CC1(C)C(=O)OC(n2cc(F)c(=O)[nH]c2=O)C1=O` (stereo not given) was run?
A: 130 % of control

Q: And the T/C (dose: 180.0 mg/kg/injection, schedule: Q04DX002 (ip), vehicle: distilled water + Tween-80)?
A: 125 % of control

Q: And the T/C (dose: 180.0 mg/kg/injection, schedule: Q04DX002 (ip), vehicle: saline with Tween-80)?
A: 139 % of control

Q: `O=C(/C=C/C(=O)Nc1ccc(F)cc1F)Nc1ccc(F)cc1F` was tested. Which survivor count [9] did it give?
A: 6 of 6

Q: Which survivor count (dose: 400.0 mg/kg/injection, schedule: Q01DX001 (ip), vehicle: other) does the source give for `FC(F)(F)c1ssc1C(F)(F)F` here?
A: 2 of 6

Q: With `CC(=O)OCC12C=CC(O1)C1C(=O)OC(=O)C12` (stereo not given) as the compound, how does the survivor count [12] read?
A: 5 of 5

Q: With `COc1cc2ccc(CC(=S)N3CCOCC3)cc2cc1OC` as the compound, how does the survivor count (dose: 400.0 mg/kg/injection, schedule: Q01DX009 (ip), vehicle: saline with Tween-80) read?
A: 6 of 6

Q: With `CCOC(=O)CC(C(=O)OCC)S(=O)CP(=O)(OCC)OCC` (stereo not given) as the compound, how does the survivor count (dose: 60.0 mg/kg/injection, schedule: Q01DX005 (ip), vehicle: saline with Tween-80) read?
A: 0 of 6

Q: What about the survivor count [9] of the same compound?
A: 0 of 6

Q: What about the survivor count [10] of the same compound?
A: 0 of 6
